The list shows a part of the results. Shown are side measurements of this screen, not its main read-out; they come without a call. Compounds called inactive in the main read-out are mostly missing here. Potencies come from curve fits of mixed quality, noted in brackets.
Assay: qHTS Assay for Modulators of Lamin A Splicing
Conditions: HeLa LMNA splicing GFP/RFP minigene ratio, 48 h
Summary of the method: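 S3 HeLa cells stably expressing lamin A-EGFP splicing minigene plus DsRed2, 600 cells/well, 48 h compound exposure at 37C. Laser-scanning cytometry; analysed as GFP (500-530 nm)/RFP (575-640 nm) total intensity ratio; 0.5% DMSO vehicle.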

[1] = measured here: RFP viability control channel
[2] = measured here: GFP splicing reporter channel

| Compound | AC50 [1] | AC50 [2] |
| --- | --- | --- |
| Cc1cc(NC(=O)CSc2cn(CCNC(=O)c3ccc(Cl)cc3)c3ccccc23)no1 | 12.6 µM [rising, partial curve] | – |
| COc1ccc(OC)c(C(c2nnnn2C2CCCC2)N2CCN(c3ccccc3F)CC2)c1 (stereo not drawn) | 8.91 µM [rising, partial curve, poor fit] | – |
| CC1CCN(C(=O)CCCOc2ccc(Cl)cc2)CC1 | 35.5 µM [rising, single point] | – |
| CC(C)(C)C(=O)Nc1ccc2nc(SCC(=O)N3CCCC3)sc2c1 | – | 0.00794 µM [rising, full curve, poor fit] |
| Brc1ccc2nc(N3CCCC3)sc2c1 | – | 1.12 µM [rising, full curve] |
| O=C(NCCc1c[nH]c2ccccc12)C(=O)NCC1OCCN1S(=O)(=O)c1ccc(F)cc1 (stereo not drawn) | 25.1 µM [rising, single point] | – |
| CC(C)Oc1ccc(CNC(=O)c2ccc(NC(=O)c3nsc4ccccc34)cc2)cc1 | – | 0.562 µM [rising, full curve, poor fit] |
| Cc1cc(NS(=O)(=O)c2ccc(NC(=O)c3ccoc3C)cc2)nc(C)n1 | 35.5 µM [falling, single point] | – |
| CC1CN(Cc2cnc(Cl)s2)CC(C)O1 (stereo not drawn) | 0.794 µM [rising, full curve, poor fit] | – |
| CCN(CCCNC(=O)c1cc2cc3cc(C)ccc3nc2s1)c1cccc(C)c1 | – | 35.5 µM [falling, single point] |
| NCC1CCC(C(=O)Oc2ccc(CCC(=O)O)cc2)CC1 (stereo not drawn) | 12.6 µM [rising, single point] | 0.02 µM [falling, full curve, poor fit] |
| CC(=O)Oc1ccc(Cl)cc1/C=C/c1ccc2ccccc2n1 | 0.447 µM [rising, partial curve, poor fit] | – |
| CCC(NC(=O)CCl)c1ccc(C)cc1 (stereo not drawn) | 0.0126 µM [rising, full curve, poor fit] | 35.5 µM [rising, single point] |
| COC(=O)c1ccc(CN(c2ccccc2OC)S(=O)(=O)c2cccs2)o1 | 25.1 µM [rising, single point] | 28.2 µM [rising, single point] |
| Cc1nc(-c2ccccc2)sc1CCNC(=O)c1ccco1 | 3.98 µM [falling, full curve] | 2.24 µM [falling, full curve, poor fit] |
| CCCCC(=O)Nc1ncc([N+](=O)[O-])s1 | 3.16 µM [rising, single point] | – |
| Cc1nnc(SCc2cccc([N+](=O)[O-])c2)s1 | 0.00447 µM [falling, full curve, poor fit] | – |
| CCOC(=O)C1=C(C)C2C3C(=O)N(c4cc(C)ccc4C)C(=O)C3C1(C)C1C(=O)N(c3cc(C)ccc3C)C(=O)C21 (stereo not drawn) | 11.2 µM [rising, single point] | – |
| COc1ccccc1NC(=O)CN1CCSc2ccccc21 | 0.631 µM [falling, full curve, poor fit] | – |
| COc1ccc2c(c1)CCc1c(C(=O)NCc3cccnc3)noc1-2 | 7.08 µM [rising, partial curve] | – |

Two of the compounds above, bar-delimited.
Compound | AC50 [1] | AC50 [2]
CC(C)Oc1ccc(CNC(=O)c2ccc(NC(=O)c3nsc4ccccc34)cc2)cc1 | – | 0.562 µM [rising, full curve, poor fit]
Cc1cc(NS(=O)(=O)c2ccc(NC(=O)c3ccoc3C)cc2)nc(C)n1 | 35.5 µM [falling, single point] | –

Further structures.

| Compound | AC50 [1] | AC50 [2] |
| --- | --- | --- |
| O=C(Nc1ccc(Cl)c(Cl)c1)Nc1ccc(Br)cc1F | 22.4 µM [rising, single point] | – |
| O=C(CSc1cccc[n+]1[O-])C12CC3CC(CC(C3)C1)C2 | 20 µM [rising, single point] | – |
| Cn1c(=O)c(C(=O)COC(=O)c2cc(-c3ccco3)nc3ccccc23)c(N)n(CC2CC2)c1=O | 12.6 µM [rising, single point] | – |
| CCCn1c(=O)c(/C(N)=N/O)nn(-c2cccc(C(F)(F)F)c2)c1=O | – | 2 µM [rising, partial curve] |
| CCOc1ccc(OCC)c(NC(=O)CCn2cccc2)c1 | 31.6 µM [rising, single point] | – |
| CC(C)/C=C1\CC/C(=C\c2ccc(N(C)C)cc2)C1=O | 28.2 µM [rising, single point] | – |
| COc1ccccc1C(=O)NNC(=O)c1ccc(Cl)cc1 | 7.94 µM [falling, partial curve, poor fit] | 14.1 µM [falling, partial curve, poor fit] |
| COC(=O)/C=C/C(=O)N1CCN(c2cccc(Cl)c2)CC1 | – | 0.1 µM [falling, partial curve, poor fit] |
| NC(=O)N/N=C/c1ccc([N+](=O)[O-])o1 | 0.0112 µM [rising, full curve, poor fit] | – |
| CCOc1c(Cl)cc(CNCc2ccncc2)cc1OC | – | 0.0282 µM [falling, full curve, poor fit] |
| CN(C)S(=O)(=O)c1cc(C(=O)NCc2ccccc2)c(Cl)cc1Cl | – | 11.2 µM [falling, partial curve] |
| O=C(CSc1nccn1-c1ccc(Cl)cc1)Nc1nc2ccccc2s1 | – | 1.58 µM [falling, partial curve] |
| c1ccc2c(N3CCCCCC3)nc(-c3ccncc3)nc2c1 | 25.1 µM [rising, single point] | 25.1 µM [rising, single point] |
| CCOc1ccc(/C=C2\SC(=S)N(Nc3ccccc3)C2=O)cc1OC | 0.0562 µM [rising, full curve, poor fit] | – |
| CC(=O)Cc1nsc(NC(=O)c2ccc(-c3ccccc3Cl)o2)n1 | 20 µM [rising, single point] | – |
| O=C(Nc1cccc([N+](=O)[O-])c1)Nc1ccc2c(c1)OCCO2 | 3.98 µM [falling, full curve, poor fit] | – |
| COc1ccc(-c2nc(SC(CC(=O)NCc3ccccc3)c3ccc(OC)c(OC)c3)n[nH]2)cc1 (stereo not drawn) | 3.16 µM [rising, partial curve, poor fit] | – |
| Clc1cccc(-c2cc3nc4c(c(N5CCOCC5)n3n2)CCCC4)c1 | 35.5 µM [rising, single point] | – |
| C=CCNC(=S)N1CCN(c2cccc(C(F)(F)F)c2)CC1 | 31.6 µM [rising, single point] | – |
| Cc1ccc2nc(/C(C#N)=C/c3cn[nH]c3-c3ccc(F)cc3)[nH]c2c1 | 35.5 µM [falling, single point] | 35.5 µM [falling, single point] |

| Compound | AC50 [1] | AC50 [2] |
| --- | --- | --- |
| Cc1ccc(S(=O)(=O)NC(C)C(=O)Nc2ccccc2C(=O)N2CCCC2)cc1 (stereo not drawn) | 0.2 µM [rising, full curve, poor fit] | – |
| CCc1ccc(CN2CCN(C(=O)c3cccc(OC)c3OC)CC2)cc1 | 7.94 µM [rising, partial curve] | – |
| Cc1cc(C)cc(NC(=O)COc2ccc3c(C)c(Cc4ccccc4)c(=O)oc3c2)c1 | 5.62 µM [rising, full curve] | 5.01 µM [rising, partial curve] |
| O=C(N1CCCCC1)C1(c2ccccc2)CCOCC1 | 4.47 µM [falling, partial curve, poor fit] | – |
| O=C(Nc1c(Cl)cccc1Cl)c1ccc(-c2ccccc2)cc1 | 11.2 µM [falling, partial curve] | – |
| OCCN1CCN(c2nc3ccccc3nc2-c2ccccc2)CC1 | – | 35.5 µM [falling, single point] |
| O=C(Nn1c(-c2ccc(Br)cc2)nc2ccccc2c1=O)c1ccc([N+](=O)[O-])cc1 | 11.2 µM [rising, partial curve] | – |
| COc1ccc(-c2ccc(NS(=O)(=O)c3ccc(F)c(C(F)(F)F)c3)cc2)nn1 | 0.316 µM [falling, full curve, poor fit] | 0.0501 µM [falling, full curve, poor fit] |
| CN1CCN(S(=O)(=O)c2ccc(NC(=O)c3cccc(S(=O)(=O)N4CCCC4)c3)cc2)CC1 | 31.6 µM [rising, single point] | 14.1 µM [rising, single point] |
| N=c1n(Cc2ccc(Cl)cc2)c2ccccc2n1CC(O)COc1ccccc1 (stereo not drawn) | 20 µM [falling, partial curve, poor fit] | 17.8 µM [falling, partial curve] |
| CC1C(=O)NN=C1C(=O)N/N=C/c1ccco1 (stereo not drawn) | – | 0.0112 µM [falling, full curve, poor fit] |
| Cc1cccc(NC(=O)c2cc(Cl)sc2Cl)c1C | – | 1.58 µM [falling, partial curve] |
| CCOC(=O)/C=C(/C)N1N=C(c2ccc(OC)cc2)CC1c1cccc([N+](=O)[O-])c1 (stereo not drawn) | 15.8 µM [rising, single point] | – |
| Cc1ccc(S(=O)(=O)N(C)CC(=O)N2CCCc3ccccc32)cc1 | – | 0.0794 µM [rising, full curve, poor fit] |
| Cc1cccc(N2CC(C(=O)OCc3ccc([N+](=O)[O-])cc3)CC2=O)c1 (stereo not drawn) | – | 15.8 µM [rising, partial curve, poor fit] |
| Cn1nc(-c2ccc(OCC(=O)Nc3ccccc3)cc2)c2ccccc2c1=O | 31.6 µM [rising, single point] | – |
| Cc1ccc(OCC(=O)N/N=C/c2ccc([N+](=O)[O-])o2)cc1 | 35.5 µM [rising, single point] | – |
| O=C(NNC1=C(C(=O)C(F)(F)F)CCC1)c1cccc(Cl)c1 | 17.8 µM [rising, single point] | – |
| C#CCOc1c(Cl)cc(/C=N/NC(N)=S)cc1OCC | 0.0398 µM [falling, full curve] | 0.0398 µM [falling, full curve] |
| CCCN(C(=O)CSc1cc(-c2ccccc2)c2ccc(OC)cc2n1)C1CCS(=O)(=O)C1 (stereo not drawn) | 35.5 µM [rising, single point] | 31.6 µM [rising, single point] |

Ordered by count of non-hydrogen atoms (ascending): 3 of the compounds above

| Compound | AC50 [1] | AC50 [2] |
| --- | --- | --- |
| COC(=O)/C=C/C(=O)N1CCN(c2cccc(Cl)c2)CC1 | – | 0.1 µM [falling, partial curve, poor fit] |
| Clc1cccc(-c2cc3nc4c(c(N5CCOCC5)n3n2)CCCC4)c1 | 35.5 µM [rising, single point] | – |
| CCc1ccc(CN2CCN(C(=O)c3cccc(OC)c3OC)CC2)cc1 | 7.94 µM [rising, partial curve] | – |

— PubChem BioAssay AID1487 (National Center for Advancing Translational Sciences (NCATS), 2009)
